# Measurements from the supplement of paper PMC12067093, “Discovery and optimisation of a covalent ligand for TRIM25 and its application to targeted protein ubiquitination” (Chemical Science, 2025).
# This is one part of the list.
# Compound: CC1Cc2ccccc2N1C(=O)C1CCCN(C1)C(=O)CCl (mixture of isomers) [TRIM25 ligand 11 (diastereomer mixture)]
# Assay: probe-labelled cysteine peptide fold change vs DMSO (competition) (log2 fold change); higher = less target engagement (more negative = stronger competition)
# Conditions: THP-1, incubation time: 4 h
# 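Further: competitive chemoproteomic profiling in live THP-1 cells with an iodoacetamide desthiobiotin (IA-DTB) probe, comparing probe-labelled peptide intensities in compound-treated cells against DMSO-treated controls.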
Target,probe-labelled cysteine peptide fold change (10 µM),probe-labelled cysteine peptide fold change (50 µM)
CNOT4_O95628_175_AIQCVNNVVVDGR (UniProt O95628),0.0992,0.172
COPS7B_Q9H9Q2_110_CIPYSVLLK (UniProt Q9H9Q2),0.0397,0.0594
COPS4_Q9BT78_378_QIQSLCFQVNNLLEK (UniProt Q9BT78),-0.134,0.141
CNN3_Q15417_59_DGIILCELINK (UniProt Q15417),-0.09,0.126
COPS6_Q7L5N1_283_TDFYDQCNDVGLMAYLGTITK (UniProt Q7L5N1),0.0632,-0.0731
CNBP_P62633_119+122_CYSCGEFGHIQK (UniProt P62633),-0.0812,-0.00549
CNST_Q6PJW8_408_LQLAQTEACQDVAR (UniProt Q6PJW8),-0.158,-0.143
COMP_P49747_351_WGDACDNCR (UniProt P49747),0.508,0.299
COMTD1_Q86VU5_133_VVTCEVDAQPPELGR (UniProt Q86VU5),-0.00545,0.0869
COLEC10_Q9Y6Z7_121_AGTVCDCGR (UniProt Q9Y6Z7),0.453,0.313
CMIP_Q8IY22_455_TLGCYVEILK (UniProt Q8IY22),-0.036,0.0363
COPS3_Q9UNS2_25_QLSAQGQMTQLCELINK (UniProt Q9UNS2),-0.0621,-0.175
COLGALT1_Q8NBJ5_412_GELGCFLSHYNIWK (UniProt Q8NBJ5),-0.0165,-0.0875
COMMD9_Q9P000_160_IQEDPSLCGDK (UniProt Q9P000),-0.179,0.17
CMAS_Q8NFW8_422_EFAEHICLLMEK (UniProt Q8NFW8),-0.112,-0.13
CNP_P09543_252_RPPGVLHCTTK (UniProt P09543),-0.0662,-0.201
COPB2_P35606_276_VWCVASLR (UniProt P35606),0.195,0.314
CNOT4_O95628_56_TDENGLCPACR (UniProt O95628),-0.172,0.102
CLUH_O75153_88_TCFSLHLDGNVLDHFSELR (UniProt O75153),0.1,-0.118
COPB2_P35606_681_CQFGLAQECLHHAQDYGGLLLLATASGNANMVNK (UniProt P35606),0.0552,0.106
CNOT1_A5YKK6_426_HAEGQLSFIQHSLINPEIFCFADYPCHTVATDILK (UniProt A5YKK6),0.117,0.0307
COMMD3_Q9UBI1_90_STLSTYLEDCK (UniProt Q9UBI1),0.0342,0.0602

Target,probe-labelled cysteine peptide fold change (10 µM),probe-labelled cysteine peptide fold change (50 µM)
COMT_P21964_207_YLPDTLLLEECGLLRK (UniProt P21964),-0.0627,0.00395
CNBP_P62633_57_CGESGHLAK (UniProt P62633),0.0116,0.0248
COPG1_Q9Y678_129_ALCQITDSTMLQAIER (UniProt Q9Y678),-0.0691,-0.0858
COPG2_Q9UBF2_88_MCYLTIK (UniProt Q9UBF2),-0.00142,-0.0267
COMMD3_Q9UBI1_62_HCHAAAATYILEAGK (UniProt Q9UBI1),0.233,0.0397
CLUH_O75153_762_DCMEHAVLPVDGATLAEVMR (UniProt O75153),0.127,-0.000484
COPB1_P53618_390_TLHSCSVR (UniProt P53618),0.194,0.33
COMMD9_Q9P000_47_LLDVTCSSLSVTQEEAEELLQALHR (UniProt Q9P000),0.253,0.258
COPG1_Q9Y678_722+726_EDPTAVACTFSCMMK (UniProt Q9Y678),-0.0378,0.142
COG2_Q14746_287_LLEFVPHHCR (UniProt Q14746),-0.0363,0.0127
CMC2_Q9NRP2_14_MHPDLSPHLHTEECNVLINLLK (UniProt Q9NRP2),0.0385,0.0806
COPA_P53621_580_GNNVYCLDR (UniProt P53621),0.0345,0.193
COLGALT1_Q8NBJ5_369_ALQAQEIECR (UniProt Q8NBJ5),0.0982,0.267
COG7_P83436_505_YLSDSCSPR (UniProt P83436),-0.0515,0.016
COPA_P53621_1148_ILSACEK (UniProt P53621),-0.0391,0.0395
COPG1_Q9Y678_446_ETGLSHLCEFIEDCEFTVLATR (UniProt Q9Y678),-0.0941,-0.12
CMPK2_Q5EBM0_422_MENPGCHVVDASPSR (UniProt Q5EBM0),0.106,-0.137
COPA_P53621_1169_NPTDAYQLNYDMHNPFDICAASYR (UniProt P53621),-0.114,0.101
CMTM3_Q96MX0_38_AFLCSLK (UniProt Q96MX0),-0.0172,-0.177
CMIP_Q8IY22_514_FAEDPRQEVHSCLLSVR (UniProt Q8IY22),0.0466,0.0762
COPB1_P53618_684_NEMNCK (UniProt P53618),-0.113,-0.242
COPG2_Q9UBF2_440+446_EAGLAHLCEFIEDCEHTVLATK (UniProt Q9UBF2),-0.0177,0.031

# Reformatted: results already given.
Target | probe-labelled cysteine peptide fold change (10 µM) | probe-labelled cysteine peptide fold change (50 µM)
COPG1_Q9Y678_129_ALCQITDSTMLQAIER (UniProt Q9Y678) | -0.0691 | -0.0858
COPG2_Q9UBF2_88_MCYLTIK (UniProt Q9UBF2) | -0.00142 | -0.0267
COPG1_Q9Y678_722+726_EDPTAVACTFSCMMK (UniProt Q9Y678) | -0.0378 | 0.142

# The list continues:

Target,probe-labelled cysteine peptide fold change (10 µM),probe-labelled cysteine peptide fold change (50 µM)
COG2_Q14746_415_FREIAGSLEAALTDVLEDAPAESPYCLLASHR (UniProt Q14746),0.15,0.0753
COA6_Q5JTJ3_79_CLDENLEDASQCK (UniProt Q5JTJ3),-0.263,-0.053
COG2_Q14746_563_NFSSISAALEDSQSSFSACVPSLSSK (UniProt Q14746),-0.184,-0.18
CNOT7_Q9UIV1_148_KHEEEGIETQYFAELLMTSGVVLCEGVK (UniProt Q9UIV1),0.163,0.124
COPG1_Q9Y678_726_EDPTAVACTFSCMMK (UniProt Q9Y678),0.0698,-0.0871
CNOT1_A5YKK6_1687_YRECHLLVLK (UniProt A5YKK6),0.0353,0.129
COPB2_P35606_40_SVDLHPTEPWMLASLYNGSVCVWNHETQTLVK (UniProt P35606),0.11,-0.116
COPB2_P35606_190_GVNCIDYYSGGDKPYLISGADDR (UniProt P35606),0.0932,-0.0883
COPB2_P35606_56_TFEVCDLPVR (UniProt P35606),0.048,0.162
CNBP_P62633_111_DCDHADEQK (UniProt P62633),0.146,0.121
COG5_Q9UP83_716_LAADFAQMELAVGPFCR (UniProt Q9UP83),0.0393,0.278
CNPY2_Q9Y2B0_28+31_SQDLHCGACR (UniProt Q9Y2B0),-0.0695,-0.0399
COPS6_Q7L5N1_299_TCNTMNQFVNK (UniProt Q7L5N1),0.0367,-0.0373
CNDP2_Q96KP4_161_FCLEGMEESGSEGLDELIFAR (UniProt Q96KP4),-0.00564,-0.0637
COL4A3BP_Q9Y5P4_529_KIPALTENDPETWIVCNFSVDHDSAPLNNR (UniProt Q9Y5P4),0.24,-0.169
COPA_P53621_514_HAIVICNR (UniProt P53621),0.0717,0.214
COLGALT1_Q8NBJ5_283_QAEVQMYVCNKEEYGFLPVPLR (UniProt Q8NBJ5),0.0262,-0.0703
CLUH_O75153_84_ILAPGIEPFSLQVSPQEMVQEIHQVLMDREDTCHR (UniProt O75153),-0.0655,0.0183
CNTRL_Q7Z7A1_1451_EADRLLAEAESELSCTK (UniProt Q7Z7A1),-0.0109,-0.00146
COPS5_Q92905_218_IEDFGVHCK (UniProt Q92905),-0.0105,0.00955
